According to US20230416740A1:
No constants are given. Whether binding was seen depends on the method and setting. In cells and extracts the contact can be indirect. Some entries that bind do so weakly or less than the wild type. Sequences can lack the tags named with a protein.

Chains of the proteins cited; added tags and fusions are not shown. Lines headed by an entry give the natural chain unless they say otherwise; changes in a name come on top. A line that says so, or that is headed by a name, gives the form on record, which may keep a tag or linker. Residues count along the entry.
UniProt Q8K212: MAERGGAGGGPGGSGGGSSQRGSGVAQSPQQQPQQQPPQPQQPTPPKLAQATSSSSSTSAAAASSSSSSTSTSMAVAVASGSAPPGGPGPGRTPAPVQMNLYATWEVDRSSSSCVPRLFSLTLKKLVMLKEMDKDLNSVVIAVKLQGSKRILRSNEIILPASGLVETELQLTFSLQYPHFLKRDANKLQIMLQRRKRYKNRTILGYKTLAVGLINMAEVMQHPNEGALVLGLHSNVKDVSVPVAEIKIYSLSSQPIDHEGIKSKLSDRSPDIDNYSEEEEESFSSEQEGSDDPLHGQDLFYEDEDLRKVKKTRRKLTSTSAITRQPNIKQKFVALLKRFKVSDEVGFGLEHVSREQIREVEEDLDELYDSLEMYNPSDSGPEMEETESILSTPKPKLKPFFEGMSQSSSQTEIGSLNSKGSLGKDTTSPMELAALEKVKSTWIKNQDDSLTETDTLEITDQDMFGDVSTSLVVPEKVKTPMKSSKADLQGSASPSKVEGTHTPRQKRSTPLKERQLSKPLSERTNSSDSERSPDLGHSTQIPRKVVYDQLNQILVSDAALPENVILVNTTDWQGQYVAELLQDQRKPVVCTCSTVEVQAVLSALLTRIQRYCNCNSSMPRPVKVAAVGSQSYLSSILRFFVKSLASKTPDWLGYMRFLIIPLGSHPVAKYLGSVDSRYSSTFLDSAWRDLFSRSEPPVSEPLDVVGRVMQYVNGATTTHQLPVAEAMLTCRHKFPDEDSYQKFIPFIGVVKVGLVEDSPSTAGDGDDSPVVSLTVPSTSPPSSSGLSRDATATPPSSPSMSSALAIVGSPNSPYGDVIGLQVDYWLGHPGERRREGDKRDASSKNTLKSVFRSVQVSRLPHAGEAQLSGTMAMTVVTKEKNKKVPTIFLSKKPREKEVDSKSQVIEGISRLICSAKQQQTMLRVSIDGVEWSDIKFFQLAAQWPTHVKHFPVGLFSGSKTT
HA-Pacs1: residues 114-961 of Q8K212
FLAG-tagged Pacs1 (amino acids 171-961): residues 171-961 of Q8K212

B1: HA-tagged full-length Wdr37 (protein, mouse, UniProt Q8CBE3 1-496, looked up, not shown: small tags and cut ends)
chain: MPTESGSCSTARQAKQKRKSHSLSIRRTNSSEQERTGLPREMLEGQDSKLPSSVRSTLLELFGQIEREFENLYIENLELRREIDTLNERLAGEGQAIDGAELSKGQLKTKASHSTSQLSQKLKTTYKASTSKIVSSFKTTTSRAICQLVKEYIGHRDGIWDVSVTRTQPIVLGTASADHTALLWSIETGKCLVKYAGHVGSVNSIKFHPSEQLALTASGDQTAHIWRYVVQLPTPQPVADTSQQISGEDEIECSDKDEPDIDGDVSSDCPTVRVPLTSLKSHQGVVIAADWLVGGKQVVTASWDRTANLYDVETSELVHSLTGHDQELTHCCTHPTQRLVVTSSRDTTFRLWDFRDPSIHSVNVFQGHTDTVTSAVFTVGDNVVSGSDDRTVKVWDLKNMRSPIATIRTDSAINRINVCVGQKIIALPHDNRQVRLFDMSGVRLARLPRSSRQGHRRMVCCSAWSEDHPICNLFTCGFDRQAIGWNINIPALLQEK
B2: FLAG-Wdr37 (protein, mouse, UniProt Q8CBE3 1-496, looked up, not shown: small tags and cut ends)
chain: B1 chain

Tests used:
[1] = molecular target: FLAG-tagged Pacs1 (amino acids 171-961) (mouse) (UniProt Q8K212); experiment: co-immunoprecipitation in co-transfected 293T cells (figure legend)
[2] = molecular target: FLAG-tagged Pacs1 (amino acids 171-961) (mouse) (UniProt Q8K212); experiment: co-immunoprecipitation on anti-FLAG resin from co-transfected HEK 293T cells, western blot
HA-Pacs1 (mouse) [3] = molecular target: HA-Pacs1 (mouse) (UniProt Q8K212); experiment: reciprocal co-immunoprecipitation on anti-FLAG resin from co-transfected HEK 293T cells, western blot
HA-Pacs1 (mouse) [4] = molecular target: HA-Pacs1 (mouse) (UniProt Q8K212); experiment: co-immunoprecipitation in co-transfected 293T cells (figure legend)

| Binder | binding [1] | binding [2] | binding (HA-Pacs1 (mouse) [3]) | binding (HA-Pacs1 (mouse) [4]) |
| --- | --- | --- | --- | --- |
| B1 | binds | binds | – | – |
| B2 | – | – | binds | binds |
